Measurements reported in PubChem BioAssay AID1224828 (NIAID, 2016)

Assay: 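Find genes required for NF-kappaB p65 moving into the nucleus after LPS in mouse macrophages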 (primary screen)
Cell system: mouse RAW264.7 G9 macrophage reporter cells (GFP-p65, Tnf promoter-mCherry)
Reagents: siRNA pool against mouse genes, 100 nM
Duration: 2 days siRNA transfection, then 40 min LPS before fixation
Challenge: LPS (Salmonella minnesota R595) at 10 ng/ml
Measurement: 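Microscopy ratio of nuclear to perinuclear-ring GFP-p65 signal, scaled to the plate median; gene score is the average of two replicate robust z-scores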
Reading the numbers: p65 translocation robust z-score: higher = more nuclear NF-kappaB p65 after LPS than the plate median; nuclear/cytoplasmic p65 ratio: higher = more nuclear NF-kappaB p65
Call rule: 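Active if robust z is above 3.3 (negative regulators) or below -1.56, the Tlr4 control median (positive regulators); activity score 50 or more; control wells not called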
Calls: active = hit (p65 shift raised or lowered); inactive = no clear change
Shown is a random part of about 17,000 reagents tested. Over the whole deposit, 762 (4.5%) were called active. 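Active calls include both raised and lowered p65 entry, mostly lowered; wells with fewer than 50 cells lack a z-score.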 Raw values are not corrected between plates.

p65 translocation robust z-score | nuclear/cytoplasmic p65 ratio, rep 1 | nuclear/cytoplasmic p65 ratio, rep 2 | low cell count flag | Outcome | Target gene
-0.31 | 1.6 | 1.53 | enough cells to score | inactive | Atp6v1f
1.31 | 1.68 | 1.37 | enough cells to score | inactive | Or2a20
-0.58 | 1.47 | 1.42 | enough cells to score | inactive | Gcnt3
-0.38 | 1.38 | 1.49 | enough cells to score | inactive | Armh3
-1.18 | 1.5 | 1.49 | enough cells to score | inactive | Msi1
-0.85 | 1.26 | 1.16 | enough cells to score | inactive | Rnf5
– | 1.45 | 1.4 | fewer than 50 cells per well; well left out of scoring | inactive | Samd13
0.4 | 1.52 | 1.41 | enough cells to score | inactive | Dusp16
-0.63 | 1.65 | 1.43 | enough cells to score | inactive | Lgi4
0.49 | 1.55 | 1.49 | enough cells to score | inactive | Tent4a
– | 1.06 | 1.04 | fewer than 50 cells per well; well left out of scoring | inactive | 4932414N04Rik
– | 1.13 | 1.47 | fewer than 50 cells per well; well left out of scoring | inactive | Snx30
-0.4 | 1.41 | 1.34 | enough cells to score | inactive | Inpp4b
-0.16 | 1.45 | 1.31 | enough cells to score | inactive | Fgf15
-0.18 | 1.32 | 1.23 | enough cells to score | inactive | Tmem37
-0.9 | 1.17 | 1.09 | enough cells to score | inactive | Tnp1
-0.81 | 1.5 | 1.54 | enough cells to score | inactive | Vat1l
– | 1.3 | 1.53 | fewer than 50 cells per well; well left out of scoring | inactive | Csrnp3
2.49 | 1.79 | 1.7 | enough cells to score | inactive | Dbr1
-1.33 | 1.4 | 1.21 | enough cells to score | inactive | Ins1
– | 0 | 1.13 | fewer than 50 cells per well; well left out of scoring | inactive | Slc4a2
– | 1.49 | 1.57 | fewer than 50 cells per well; well left out of scoring | inactive | Tmem178
0.09 | 1.56 | 1.7 | enough cells to score | inactive | Abcc10
– | 1.28 | 1.06 | fewer than 50 cells per well; well left out of scoring | inactive | Or11j4

Look-ups from the entries so far:
For “nuclear/cytoplasmic p65 ratio, rep 2”, Armh3 is entered as 1.49
Entry for 4932414N04Rik in “low cell count flag”: fewer than 50 cells per well; well left out of scoring
